Results reported in PMC9441002.
Numbering of substitutions follows the chain as printed. These are yes or no findings as the source states them, for the method shown. In cells and extracts the contact can be indirect. Some entries that bind do so weakly or less than the wild type.

By UniProt entry, the sequences of proteins in these tests, tags left out.
UniProt P15056: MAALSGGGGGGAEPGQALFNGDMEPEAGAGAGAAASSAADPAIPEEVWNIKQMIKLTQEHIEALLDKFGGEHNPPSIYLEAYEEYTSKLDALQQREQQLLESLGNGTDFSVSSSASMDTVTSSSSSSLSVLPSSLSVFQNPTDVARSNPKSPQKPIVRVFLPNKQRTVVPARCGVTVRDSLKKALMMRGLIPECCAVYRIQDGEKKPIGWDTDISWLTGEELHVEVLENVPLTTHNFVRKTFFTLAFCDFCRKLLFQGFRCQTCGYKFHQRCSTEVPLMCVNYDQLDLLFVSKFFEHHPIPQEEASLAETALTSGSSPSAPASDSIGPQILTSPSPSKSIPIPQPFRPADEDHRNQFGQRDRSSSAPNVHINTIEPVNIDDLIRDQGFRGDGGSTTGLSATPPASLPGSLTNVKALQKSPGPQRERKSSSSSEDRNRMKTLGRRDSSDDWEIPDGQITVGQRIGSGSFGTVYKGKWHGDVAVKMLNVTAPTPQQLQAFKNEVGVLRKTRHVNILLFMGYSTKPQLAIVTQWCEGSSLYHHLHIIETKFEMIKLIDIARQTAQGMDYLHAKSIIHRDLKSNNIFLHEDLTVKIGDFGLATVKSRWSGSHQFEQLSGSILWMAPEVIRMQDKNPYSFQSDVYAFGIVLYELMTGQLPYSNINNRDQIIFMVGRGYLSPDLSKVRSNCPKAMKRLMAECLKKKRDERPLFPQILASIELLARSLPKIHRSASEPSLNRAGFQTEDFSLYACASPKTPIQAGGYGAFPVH

What was measured:
Assay in all cases: co-IP; immunoprecipitation with α-KSR1 antibodies from lysates of 293T cells transfected with KSR1 vectors; 2 mg lysate, 50 mM Tris-HCl pH 7.4, 150 mM NaCl, 0.5% NP-40, 4 °C; blots for KSR1, BRAF, RAF1 and MEK1
KSR1^D700A (mouse) = target: T1, KSR1^D700A (mouse) (UniProt Q61097)
T1 sequence: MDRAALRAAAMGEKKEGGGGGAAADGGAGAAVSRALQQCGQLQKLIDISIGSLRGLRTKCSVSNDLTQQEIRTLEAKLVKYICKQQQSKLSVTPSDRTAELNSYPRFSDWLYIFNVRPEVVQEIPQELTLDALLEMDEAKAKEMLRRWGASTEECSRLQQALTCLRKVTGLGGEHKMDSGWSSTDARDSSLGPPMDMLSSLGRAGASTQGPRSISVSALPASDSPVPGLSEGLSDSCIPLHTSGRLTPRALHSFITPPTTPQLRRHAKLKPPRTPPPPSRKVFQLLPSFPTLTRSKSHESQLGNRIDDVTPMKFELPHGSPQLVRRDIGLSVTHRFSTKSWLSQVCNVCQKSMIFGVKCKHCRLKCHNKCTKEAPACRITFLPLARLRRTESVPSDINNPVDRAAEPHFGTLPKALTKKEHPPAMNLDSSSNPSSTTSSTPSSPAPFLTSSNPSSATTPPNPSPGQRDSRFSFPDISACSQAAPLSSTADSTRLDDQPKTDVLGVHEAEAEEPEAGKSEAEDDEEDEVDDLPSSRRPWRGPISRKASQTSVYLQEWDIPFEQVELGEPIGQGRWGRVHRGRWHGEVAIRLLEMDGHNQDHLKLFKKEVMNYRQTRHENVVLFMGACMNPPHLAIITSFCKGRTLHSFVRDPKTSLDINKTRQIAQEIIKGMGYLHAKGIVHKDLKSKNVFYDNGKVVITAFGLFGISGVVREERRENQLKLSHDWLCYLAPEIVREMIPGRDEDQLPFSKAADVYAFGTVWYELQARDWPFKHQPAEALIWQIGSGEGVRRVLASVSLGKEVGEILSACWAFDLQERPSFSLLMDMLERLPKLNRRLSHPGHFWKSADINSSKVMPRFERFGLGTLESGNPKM

KSR1^D683A (mouse) = target: T2, KSR1^D683A (mouse) (UniProt Q61097)
T2 sequence: T1 sequence with D683A, A700D

KSR1^F701A (mouse) = target: T3, KSR1^F701A (mouse) (UniProt Q61097)
T3 sequence: T1 sequence with A700D, F701A

[1] = target: T4, kinase suppressor of RAS 1 (KSR1), wild type (mouse) (UniProt Q61097)
T4 sequence: T1 sequence with A700D

Measured: binding

BRAF (from UniProt P15056 1-766)
binds: KSR1^D700A (mouse) | KSR1^D683A (mouse) | KSR1^F701A (mouse) | [1]
